These results are taken from publication PMC7224204.

Chains of the proteins cited; added tags and fusions are not shown. Residues count along the entry.
UniProt O75460, residues 19-977: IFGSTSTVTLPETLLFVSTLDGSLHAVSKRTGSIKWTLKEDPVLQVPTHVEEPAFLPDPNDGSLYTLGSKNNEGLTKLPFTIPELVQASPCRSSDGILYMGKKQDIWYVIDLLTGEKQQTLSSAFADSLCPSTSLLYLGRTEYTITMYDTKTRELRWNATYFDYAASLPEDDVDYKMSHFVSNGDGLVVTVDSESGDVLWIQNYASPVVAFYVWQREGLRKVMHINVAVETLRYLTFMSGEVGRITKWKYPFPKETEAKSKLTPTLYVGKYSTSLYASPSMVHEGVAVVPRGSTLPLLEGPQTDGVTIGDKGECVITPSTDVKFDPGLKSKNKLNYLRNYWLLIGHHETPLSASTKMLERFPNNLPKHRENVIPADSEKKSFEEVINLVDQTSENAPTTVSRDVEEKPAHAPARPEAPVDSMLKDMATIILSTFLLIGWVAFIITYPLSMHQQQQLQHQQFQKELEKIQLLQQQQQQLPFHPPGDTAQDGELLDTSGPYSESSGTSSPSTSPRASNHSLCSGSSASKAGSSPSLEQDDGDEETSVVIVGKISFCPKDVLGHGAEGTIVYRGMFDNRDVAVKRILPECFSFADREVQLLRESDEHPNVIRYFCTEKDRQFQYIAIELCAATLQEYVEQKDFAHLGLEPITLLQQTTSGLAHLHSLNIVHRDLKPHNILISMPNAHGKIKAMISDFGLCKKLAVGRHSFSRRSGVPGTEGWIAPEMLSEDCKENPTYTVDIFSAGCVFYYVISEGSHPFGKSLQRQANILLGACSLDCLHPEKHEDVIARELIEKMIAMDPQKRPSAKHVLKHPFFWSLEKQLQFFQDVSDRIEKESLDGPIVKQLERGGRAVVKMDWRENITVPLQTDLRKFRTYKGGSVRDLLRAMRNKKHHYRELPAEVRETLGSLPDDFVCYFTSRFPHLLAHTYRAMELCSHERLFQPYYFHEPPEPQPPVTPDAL
UniProt P00519: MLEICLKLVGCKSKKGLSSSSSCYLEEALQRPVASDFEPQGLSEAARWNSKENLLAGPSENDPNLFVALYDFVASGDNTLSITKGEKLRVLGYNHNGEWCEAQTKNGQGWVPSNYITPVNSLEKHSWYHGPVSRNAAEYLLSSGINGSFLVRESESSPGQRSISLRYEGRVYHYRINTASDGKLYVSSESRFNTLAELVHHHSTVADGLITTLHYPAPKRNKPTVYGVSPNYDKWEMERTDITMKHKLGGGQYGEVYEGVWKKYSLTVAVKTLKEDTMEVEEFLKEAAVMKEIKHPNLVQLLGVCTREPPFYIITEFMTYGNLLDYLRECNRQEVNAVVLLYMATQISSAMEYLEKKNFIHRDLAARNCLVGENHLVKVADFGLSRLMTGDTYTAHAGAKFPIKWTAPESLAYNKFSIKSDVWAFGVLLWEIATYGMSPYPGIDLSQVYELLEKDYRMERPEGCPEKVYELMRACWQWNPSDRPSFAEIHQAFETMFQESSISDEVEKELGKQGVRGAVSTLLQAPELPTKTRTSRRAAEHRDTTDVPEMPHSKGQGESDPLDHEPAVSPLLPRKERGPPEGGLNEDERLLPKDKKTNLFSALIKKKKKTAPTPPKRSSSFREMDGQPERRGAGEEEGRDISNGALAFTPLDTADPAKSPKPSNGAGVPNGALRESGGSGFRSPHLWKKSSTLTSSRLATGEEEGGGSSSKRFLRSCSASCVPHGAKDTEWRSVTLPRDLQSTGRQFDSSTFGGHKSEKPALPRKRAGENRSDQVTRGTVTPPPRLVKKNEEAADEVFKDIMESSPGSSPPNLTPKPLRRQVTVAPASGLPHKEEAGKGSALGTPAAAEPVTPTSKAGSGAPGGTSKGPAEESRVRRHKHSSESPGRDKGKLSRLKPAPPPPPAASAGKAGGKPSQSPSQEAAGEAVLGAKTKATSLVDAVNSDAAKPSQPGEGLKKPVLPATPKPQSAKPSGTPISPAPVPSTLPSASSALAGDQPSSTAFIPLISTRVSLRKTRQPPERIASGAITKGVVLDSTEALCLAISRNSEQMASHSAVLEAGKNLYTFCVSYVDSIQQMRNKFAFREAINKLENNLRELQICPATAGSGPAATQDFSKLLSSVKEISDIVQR
UniProt P00520: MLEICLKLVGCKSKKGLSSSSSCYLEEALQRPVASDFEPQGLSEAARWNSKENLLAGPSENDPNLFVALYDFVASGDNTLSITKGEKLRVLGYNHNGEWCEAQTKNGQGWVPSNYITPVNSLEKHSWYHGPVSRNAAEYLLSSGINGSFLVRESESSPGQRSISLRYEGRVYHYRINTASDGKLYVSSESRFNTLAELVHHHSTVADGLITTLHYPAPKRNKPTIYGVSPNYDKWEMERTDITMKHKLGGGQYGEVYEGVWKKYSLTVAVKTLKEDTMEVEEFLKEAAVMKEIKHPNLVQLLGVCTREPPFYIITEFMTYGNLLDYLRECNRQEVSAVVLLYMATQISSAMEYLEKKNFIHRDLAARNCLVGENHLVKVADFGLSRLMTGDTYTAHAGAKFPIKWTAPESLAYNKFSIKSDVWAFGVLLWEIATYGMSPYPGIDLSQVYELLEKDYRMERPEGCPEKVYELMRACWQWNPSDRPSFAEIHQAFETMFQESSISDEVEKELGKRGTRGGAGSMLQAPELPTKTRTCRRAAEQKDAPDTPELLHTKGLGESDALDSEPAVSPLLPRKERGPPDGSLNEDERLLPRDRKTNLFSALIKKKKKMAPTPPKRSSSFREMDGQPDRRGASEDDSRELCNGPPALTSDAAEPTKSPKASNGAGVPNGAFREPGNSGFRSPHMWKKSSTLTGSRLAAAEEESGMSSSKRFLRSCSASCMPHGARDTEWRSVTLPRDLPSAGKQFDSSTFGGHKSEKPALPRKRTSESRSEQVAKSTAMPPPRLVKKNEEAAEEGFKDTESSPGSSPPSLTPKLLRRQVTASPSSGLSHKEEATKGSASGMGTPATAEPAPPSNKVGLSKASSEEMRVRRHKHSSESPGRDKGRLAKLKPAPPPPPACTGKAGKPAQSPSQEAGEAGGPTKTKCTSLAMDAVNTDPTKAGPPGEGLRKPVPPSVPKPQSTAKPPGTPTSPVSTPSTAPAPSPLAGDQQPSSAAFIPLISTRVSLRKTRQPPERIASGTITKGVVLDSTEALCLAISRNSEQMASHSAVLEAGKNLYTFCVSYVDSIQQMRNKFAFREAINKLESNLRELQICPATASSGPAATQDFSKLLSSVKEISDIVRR
UniProt P20029, residues 20-655: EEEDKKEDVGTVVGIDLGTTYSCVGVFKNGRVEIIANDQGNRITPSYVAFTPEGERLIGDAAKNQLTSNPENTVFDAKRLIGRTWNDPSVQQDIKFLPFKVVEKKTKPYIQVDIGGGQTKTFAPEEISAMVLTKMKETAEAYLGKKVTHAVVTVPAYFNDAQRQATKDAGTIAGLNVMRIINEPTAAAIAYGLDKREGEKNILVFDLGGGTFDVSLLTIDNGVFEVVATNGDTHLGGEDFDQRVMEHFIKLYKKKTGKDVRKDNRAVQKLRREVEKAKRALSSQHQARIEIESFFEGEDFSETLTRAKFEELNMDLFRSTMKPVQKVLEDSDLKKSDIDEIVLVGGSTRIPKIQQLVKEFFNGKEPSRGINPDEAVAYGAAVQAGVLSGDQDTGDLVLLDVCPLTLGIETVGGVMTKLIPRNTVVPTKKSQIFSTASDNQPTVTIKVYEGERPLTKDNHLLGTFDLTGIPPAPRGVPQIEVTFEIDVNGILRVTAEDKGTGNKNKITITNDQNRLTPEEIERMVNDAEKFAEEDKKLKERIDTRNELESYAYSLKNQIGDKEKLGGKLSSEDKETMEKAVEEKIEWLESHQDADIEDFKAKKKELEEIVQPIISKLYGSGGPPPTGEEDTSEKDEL

These are yes or no findings as the source states them, for the method shown. In cells and extracts the contact can be indirect. Some binding calls cover weakened binding; strength is not graded here.

For test [1], the target named is IRE1α-HA (inositol requiring enzyme 1 alpha, HA-tagged), expressed in HEK-293T cells (UniProt O75460). Nature of the test: co-IP; HEK-293T cells overexpressing IRE1α-HA and c-Abl-GFP, with or without 10 μM etoposide; IP by the HA epitope (IRE1α) and by GFP (c-Abl); lysis buffer 0.5% NP-40, 50 mM NaCl, 50 mM Tris pH 7.6; anti-HA agarose 4 h at 4 °C, last wash with 350 mM NaCl; western blot.

Test [2] concerns the target IRE1α-HA (inositol requiring enzyme 1 alpha, HA-tagged), stably reconstituted in IRE1α-deficient MEF cells (UniProt O75460). Description: proximity ligation; IRE1α KO MEF reconstituted with IRE1α-HA (Mock as control), basal or 10 μM etoposide 8 h; fixed cells, anti-HA and anti-c-Abl antibodies, Duolink, confocal microscopy.
Test [3] shares this target. Description: co-IP; IP of HA-tagged IRE1α with anti-HA agarose, blot for BiP; cells untreated, with etoposide or with ER stress (tunicamycin); lysis buffer 0.5% NP-40, 50 mM NaCl, 50 mM Tris pH 7.6, last wash with 350 mM NaCl.

As to c-Abl-GFP (from UniProt P00519 1-1130), in test [1], the binding result is “binds”.
Consider “endogenous c-Abl (MEF cells) (from UniProt P00520 1-1123)”, for which, in test [2], the binding result is “binds”.
With “BiP (ER chaperone) (from UniProt P20029 20-655)”, the binding entry in test [3] is “binds”.
